In PMC5498468, “Exposure to the Epstein–Barr Viral Antigen Latent Membrane Protein 1 Induces Myelin-Reactive Antibodies In Vivo” (Frontiers in Immunology, 2017):
No constants are given. Whether binding was seen depends on the method and setting.

Chains of the proteins cited; added tags and fusions are not shown.
UniProt P02687: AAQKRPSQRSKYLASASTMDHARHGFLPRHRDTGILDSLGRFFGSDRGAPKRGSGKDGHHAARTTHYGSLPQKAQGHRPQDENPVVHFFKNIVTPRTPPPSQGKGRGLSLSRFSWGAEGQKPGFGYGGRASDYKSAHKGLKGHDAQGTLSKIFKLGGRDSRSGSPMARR

Target: T1, Bovine myelin basic protein (MBP) (bovine, UniProt P02687 1-169)
T1 construct: Myelin basic protein, bovine
Test: ELISA + other: WB (methods) or immunoprecipitation (results); synthetic peptides with C-terminal Lys-biotin tested for binding of MBP and LMP1; one grade a pair for the two assays; both purified

Row | Binder | binding
1 | GASDGSTDYGLLQLGGSRK (C-terminal Lys-biotin) [Synthesized biotinylated peptide P1, … (Bio)] | no binding
2 | NTDGSTDYGLLQLK (C-terminal Lys-biotin) [Synthesized biotinylated peptide P4, … (Bio)] | no binding
3 | GDGSGTSFLLTGK (C-terminal Lys-biotin) [Synthesized biotinylated peptide P5, … (Bio)] | no binding
